PubChem BioAssay AID1259425, University of Nebraska Medical Center, 2018
The whole screen tested about 14,000 reagents; shown is an unselected part. Not all columns of the deposit are shown. Reagent sequences are not shown. The record does not give: the time to read-out.

Test: 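Find knockdowns that reproduce the gene expression pattern seen when KSR1 is lost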 (primary screen)
Cell system: HCT116 human colon cancer cells
Reagents: siRNA pool against human genes, 50 nM siRNA
Detection: 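mRNA of six signature genes measured together by branched-DNA assay after 50 nM siRNA pool, blank removed, divided by geometric mean of two housekeeping genes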
Scale: BNIP3L mRNA: higher = more BNIP3L transcript after knockdown; NDRG1 mRNA: higher = more NDRG1 transcript after knockdown

| gene | BNIP3L mRNA, set 1 | NDRG1 mRNA, set 1 |
| --- | --- | --- |
| FAXDC2 (fatty acid hydroxylase domain containing 2) | 0.12 | 0.148 |
| EMILIN2 (elastin microfibril interfacer 2) | 0.132 | 0.385 |
| E4F1 (E4F transcription factor 1) | 0.0268 | 0.0658 |
| DDX5 (DEAD-box helicase 5) | 0.111 | 0.251 |
| DYRK1B | 0.141 | 0.123 |
| PCDH15 (protocadherin related 15) | 0.164 | 0.242 |
| N4BP2 (NEDD4 binding protein 2) | 0.0804 | 0.0813 |
| NMRAL1 (NmrA like redox sensor 1) | 0.24 | 0.44 |
| ZFYVE21 (zinc finger FYVE-type containing 21) | 0.184 | 0.126 |
| RPS11 (ribosomal protein S11) | 0.0997 | 0.141 |
| RBM48 (RNA binding motif protein 48) | 0.212 | 0.195 |
| DHRS4 (dehydrogenase/reductase 4) | 0.106 | 0.433 |
| SYNJ2BP (synaptojanin 2 binding protein) | 0.623 | 0.842 |
| SNAI1 (snail family transcriptional repressor 1) | 0.0931 | 0.415 |
| TDP1 (tyrosyl-DNA phosphodiesterase 1) | 0.0936 | 0.219 |
| ITM2A (integral membrane protein 2A) | 0.079 | 0.305 |
| ANKRD2 (ankyrin repeat domain 2) | 0.113 | 0.61 |
| IARS1 (isoleucyl-tRNA synthetase 1) | 0.259 | 1.12 |
| UTP11 (UTP11 small subunit processome component) | 0.162 | 0.17 |
| WNK2 (WNK lysine deficient protein kinase 2) | 0.0464 | 0.126 |
